According to PMC8591536, “DNA asymmetry promotes SUMO modification of the single‐stranded DNA‐binding protein RPA” (The EMBO Journal, 2021):
Construct, isoform or probe ends are uncertain for at least one entry. A weaker result is weaker than the reference pair of the same experiment. At least one verdict rests on a figure or table, not on a statement of the authors. Tags and fusion partners may be left off the protein sequences shown.

Target: T1, Siz2∆CT (UniProt Q12216)
T1 sequence (looked up): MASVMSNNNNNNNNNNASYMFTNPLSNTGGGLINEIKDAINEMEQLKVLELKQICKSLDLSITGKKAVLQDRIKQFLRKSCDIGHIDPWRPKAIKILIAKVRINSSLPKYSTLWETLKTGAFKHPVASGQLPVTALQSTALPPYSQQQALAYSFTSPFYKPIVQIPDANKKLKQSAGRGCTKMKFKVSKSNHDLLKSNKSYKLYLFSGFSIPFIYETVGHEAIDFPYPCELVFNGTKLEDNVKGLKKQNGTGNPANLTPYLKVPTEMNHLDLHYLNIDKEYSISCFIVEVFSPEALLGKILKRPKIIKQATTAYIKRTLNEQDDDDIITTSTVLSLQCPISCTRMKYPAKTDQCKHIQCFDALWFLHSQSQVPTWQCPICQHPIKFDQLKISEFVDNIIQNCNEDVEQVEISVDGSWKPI
Assay: fluorescence polarization
Settings: FP: 20 mM HEPES pH 7.5, 125 mM NaCl, 0.1% Tween-20, 23°C, 50 nM DNA (RPA/SUMO-RPA on ss32: 1 nM DNA, plus 5 mM MgCl2, 1 mM DTT), recombinant protein, residues 1-420, protein details: His6-thioredoxin removed with TEV

| Sequence | binding result (label: 5' 6-FAM, single-stranded DNA) | binding result (label: 5' 6-FAM on strand 2 (rv20)) |
| --- | --- | --- |
| TTTTTTTTTTTTTTTTTTTTTTTTTTTTTTTT [6-FAM-ss32 (32dT)] | binds more weakly |  |
| TTTTTTTTTTTTTTTTTTTTTTTTTTTTTTTTGCTGTAGCTAGTTTTGCTTC / GAAGCAAAACTAGCTACAGC [6-FAM-ss32ds20] |  | binds |
